Source: article PMC4330386 (Nucleic Acids Research, 2015)
These are yes or no findings as the source states them, for the method shown. Some entries that bind do so weakly or less than the wild type. For part of these data: Sequences can lack the tags named with a protein.

Legend:
Assay in all cases: co-purification; Mus81 (or derivative) and Mms4 (or Mms4_(Δ40N)) co-expressed in E. coli; phosphocellulose, Ni2+-NTA, glycerol gradient sedimentation (500-mM NaCl); SDS-PAGE, Coomassie blue
[1] = molecular target: T1, Mus81_(Δ21–24) of Mus81_(Δ21–24)–Mms4_(Δ40N) (S. cerevisiae) (UniProt Q04149)
T1 sequence: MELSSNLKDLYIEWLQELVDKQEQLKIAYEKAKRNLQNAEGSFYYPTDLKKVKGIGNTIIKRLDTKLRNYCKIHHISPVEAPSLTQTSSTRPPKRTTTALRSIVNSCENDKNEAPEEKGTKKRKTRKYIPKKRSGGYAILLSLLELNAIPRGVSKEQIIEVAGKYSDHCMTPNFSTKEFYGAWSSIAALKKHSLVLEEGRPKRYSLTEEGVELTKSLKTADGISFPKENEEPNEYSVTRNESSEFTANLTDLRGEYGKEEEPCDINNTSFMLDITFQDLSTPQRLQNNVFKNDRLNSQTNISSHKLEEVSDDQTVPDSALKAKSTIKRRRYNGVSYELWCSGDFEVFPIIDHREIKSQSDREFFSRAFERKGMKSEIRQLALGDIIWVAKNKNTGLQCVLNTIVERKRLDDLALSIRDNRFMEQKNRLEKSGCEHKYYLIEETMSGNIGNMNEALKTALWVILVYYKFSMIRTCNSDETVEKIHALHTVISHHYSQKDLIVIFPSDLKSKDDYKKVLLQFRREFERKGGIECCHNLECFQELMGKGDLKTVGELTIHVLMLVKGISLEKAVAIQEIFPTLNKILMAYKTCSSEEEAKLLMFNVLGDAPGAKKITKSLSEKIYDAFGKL

[2] = molecular target: T2, Mus81_(Δ21–26) of Mus81_(Δ21–26)–Mms4_(Δ40N) (S. cerevisiae) (UniProt Q04149)
T2 sequence: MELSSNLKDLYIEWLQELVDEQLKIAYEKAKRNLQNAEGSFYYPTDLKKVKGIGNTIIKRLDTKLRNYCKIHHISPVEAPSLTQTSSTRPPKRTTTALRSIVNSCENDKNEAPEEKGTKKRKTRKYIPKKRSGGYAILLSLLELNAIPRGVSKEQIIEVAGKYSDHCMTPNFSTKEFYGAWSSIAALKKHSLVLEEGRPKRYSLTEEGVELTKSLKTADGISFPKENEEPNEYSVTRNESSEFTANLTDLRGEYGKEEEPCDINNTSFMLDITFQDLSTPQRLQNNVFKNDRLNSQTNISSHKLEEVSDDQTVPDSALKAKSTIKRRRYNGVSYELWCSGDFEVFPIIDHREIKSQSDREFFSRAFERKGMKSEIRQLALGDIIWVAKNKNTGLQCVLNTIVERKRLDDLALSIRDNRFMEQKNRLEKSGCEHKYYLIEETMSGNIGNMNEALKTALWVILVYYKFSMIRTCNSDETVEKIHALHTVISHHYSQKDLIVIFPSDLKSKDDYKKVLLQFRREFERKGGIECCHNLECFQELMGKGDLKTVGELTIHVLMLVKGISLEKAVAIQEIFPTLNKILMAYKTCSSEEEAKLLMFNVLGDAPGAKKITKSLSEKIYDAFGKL

[3] = molecular target: T3, Mus81_(Δ21–22) of Mus81_(Δ21–22)–Mms4_(Δ40N) (S. cerevisiae) (UniProt Q04149)
T3 sequence: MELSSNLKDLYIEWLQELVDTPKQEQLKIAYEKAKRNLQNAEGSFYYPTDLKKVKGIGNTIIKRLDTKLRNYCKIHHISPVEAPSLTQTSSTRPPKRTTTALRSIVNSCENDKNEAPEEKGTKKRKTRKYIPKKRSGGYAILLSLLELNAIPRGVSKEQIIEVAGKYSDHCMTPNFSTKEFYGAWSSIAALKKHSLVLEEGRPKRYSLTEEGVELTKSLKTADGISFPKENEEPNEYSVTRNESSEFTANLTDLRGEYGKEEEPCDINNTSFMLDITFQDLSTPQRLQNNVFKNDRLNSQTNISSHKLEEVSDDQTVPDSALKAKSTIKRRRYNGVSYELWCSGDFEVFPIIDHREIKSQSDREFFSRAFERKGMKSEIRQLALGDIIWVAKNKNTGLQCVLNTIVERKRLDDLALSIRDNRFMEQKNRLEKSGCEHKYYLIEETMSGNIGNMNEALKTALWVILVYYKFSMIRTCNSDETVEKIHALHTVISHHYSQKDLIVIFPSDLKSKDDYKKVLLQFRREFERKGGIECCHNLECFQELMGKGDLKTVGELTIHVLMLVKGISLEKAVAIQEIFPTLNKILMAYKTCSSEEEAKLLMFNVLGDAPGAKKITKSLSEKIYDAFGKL

[4] = molecular target: T4, Mus81_(Δ120N) (the mutant Mus81 subunit devoid of the N-terminal 120 aa residues) (S. cerevisiae) (UniProt Q04149)
T4 sequence: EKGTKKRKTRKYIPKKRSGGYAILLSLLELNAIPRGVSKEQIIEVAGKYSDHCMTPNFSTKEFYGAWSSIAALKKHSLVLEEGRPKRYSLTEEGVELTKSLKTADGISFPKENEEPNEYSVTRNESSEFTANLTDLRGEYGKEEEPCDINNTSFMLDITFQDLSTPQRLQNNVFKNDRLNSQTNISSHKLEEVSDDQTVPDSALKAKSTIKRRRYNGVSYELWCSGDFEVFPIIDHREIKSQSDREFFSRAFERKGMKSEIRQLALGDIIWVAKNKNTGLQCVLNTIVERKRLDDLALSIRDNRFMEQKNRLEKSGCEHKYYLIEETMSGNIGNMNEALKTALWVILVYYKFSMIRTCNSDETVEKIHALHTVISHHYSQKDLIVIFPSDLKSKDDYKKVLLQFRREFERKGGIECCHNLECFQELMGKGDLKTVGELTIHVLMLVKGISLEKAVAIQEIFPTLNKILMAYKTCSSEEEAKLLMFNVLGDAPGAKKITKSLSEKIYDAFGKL

[5] = molecular target: T5, Mus81-6XHis (full-length Mus81 subunit) (S. cerevisiae) (UniProt Q04149)
T5 sequence: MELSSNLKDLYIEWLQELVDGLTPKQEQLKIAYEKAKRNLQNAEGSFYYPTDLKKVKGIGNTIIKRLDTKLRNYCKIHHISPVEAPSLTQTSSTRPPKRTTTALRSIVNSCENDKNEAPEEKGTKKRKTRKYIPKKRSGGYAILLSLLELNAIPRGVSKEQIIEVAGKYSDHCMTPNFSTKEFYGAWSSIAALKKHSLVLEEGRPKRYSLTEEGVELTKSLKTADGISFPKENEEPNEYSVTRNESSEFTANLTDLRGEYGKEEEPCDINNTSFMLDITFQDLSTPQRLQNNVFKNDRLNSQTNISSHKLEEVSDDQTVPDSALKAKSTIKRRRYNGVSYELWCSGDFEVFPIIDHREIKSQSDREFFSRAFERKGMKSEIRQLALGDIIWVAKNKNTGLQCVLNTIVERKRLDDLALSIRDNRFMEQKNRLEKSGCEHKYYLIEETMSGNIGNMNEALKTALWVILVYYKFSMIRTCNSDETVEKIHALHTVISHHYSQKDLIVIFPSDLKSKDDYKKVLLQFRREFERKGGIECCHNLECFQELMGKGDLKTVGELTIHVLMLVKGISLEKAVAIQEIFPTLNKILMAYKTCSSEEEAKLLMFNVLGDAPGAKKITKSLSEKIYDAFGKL

[6] = molecular target: T6, Mms4 of the wild-type Mus81–Mms4 complex (budding yeast) (UniProt P38257)
T6 sequence: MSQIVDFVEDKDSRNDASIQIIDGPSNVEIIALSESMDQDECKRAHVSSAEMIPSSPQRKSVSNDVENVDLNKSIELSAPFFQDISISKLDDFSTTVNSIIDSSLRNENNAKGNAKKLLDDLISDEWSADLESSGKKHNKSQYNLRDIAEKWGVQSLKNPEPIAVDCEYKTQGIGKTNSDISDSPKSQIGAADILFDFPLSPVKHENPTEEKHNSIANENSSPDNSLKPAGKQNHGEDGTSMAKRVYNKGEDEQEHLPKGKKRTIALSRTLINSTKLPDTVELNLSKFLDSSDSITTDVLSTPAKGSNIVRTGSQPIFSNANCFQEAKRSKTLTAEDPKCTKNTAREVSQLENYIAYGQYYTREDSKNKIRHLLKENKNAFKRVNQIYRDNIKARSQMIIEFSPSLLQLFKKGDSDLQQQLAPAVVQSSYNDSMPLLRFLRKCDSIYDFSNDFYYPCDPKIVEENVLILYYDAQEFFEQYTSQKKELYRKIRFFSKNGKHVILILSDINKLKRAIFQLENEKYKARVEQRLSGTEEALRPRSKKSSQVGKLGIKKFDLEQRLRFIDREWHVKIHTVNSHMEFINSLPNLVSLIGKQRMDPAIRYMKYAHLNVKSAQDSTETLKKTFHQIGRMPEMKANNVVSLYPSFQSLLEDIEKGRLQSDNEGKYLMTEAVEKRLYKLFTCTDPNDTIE

Measured: binding

B1: Mms4_(Δ40N) (domain or fragment, budding yeast, UniProt P38257 41-691, looked up)
chain: ECKRAHVSSAEMIPSSPQRKSVSNDVENVDLNKSIELSAPFFQDISISKLDDFSTTVNSIIDSSLRNENNAKGNAKKLLDDLISDEWSADLESSGKKHNKSQYNLRDIAEKWGVQSLKNPEPIAVDCEYKTQGIGKTNSDISDSPKSQIGAADILFDFPLSPVKHENPTEEKHNSIANENSSPDNSLKPAGKQNHGEDGTSMAKRVYNKGEDEQEHLPKGKKRTIALSRTLINSTKLPDTVELNLSKFLDSSDSITTDVLSTPAKGSNIVRTGSQPIFSNANCFQEAKRSKTLTAEDPKCTKNTAREVSQLENYIAYGQYYTREDSKNKIRHLLKENKNAFKRVNQIYRDNIKARSQMIIEFSPSLLQLFKKGDSDLQQQLAPAVVQSSYNDSMPLLRFLRKCDSIYDFSNDFYYPCDPKIVEENVLILYYDAQEFFEQYTSQKKELYRKIRFFSKNGKHVILILSDINKLKRAIFQLENEKYKARVEQRLSGTEEALRPRSKKSSQVGKLGIKKFDLEQRLRFIDREWHVKIHTVNSHMEFINSLPNLVSLIGKQRMDPAIRYMKYAHLNVKSAQDSTETLKKTFHQIGRMPEMKANNVVSLYPSFQSLLEDIEKGRLQSDNEGKYLMTEAVEKRLYKLFTCTDPNDTIE
not listed: [6]
binds: all other assays above

B2: Mus81 of the wild-type Mus81–Mms4 complex (protein, UniProt Q04149 1-632)
chain: MELSSNLKDLYIEWLQELVDGLTPKQEQLKIAYEKAKRNLQNAEGSFYYPTDLKKVKGIGNTIIKRLDTKLRNYCKIHHISPVEAPSLTQTSSTRPPKRTTTALRSIVNSCENDKNEAPEEKGTKKRKTRKYIPKKRSGGYAILLSLLELNAIPRGVSKEQIIEVAGKYSDHCMTPNFSTKEFYGAWSSIAALKKHSLVLEEGRPKRYSLTEEGVELTKSLKTADGISFPKENEEPNEYSVTRNESSEFTANLTDLRGEYGKEEEPCDINNTSFMLDITFQDLSTPQRLQNNVFKNDRLNSQTNISSHKLEEVSDDQTVPDSALKAKSTIKRRRYNGVSYELWCSGDFEVFPIIDHREIKSQSDREFFSRAFERKGMKSEIRQLALGDIIWVAKNKNTGLQCVLNTIVERKRLDDLALSIRDNRFMEQKNRLEKSGCEHKYYLIEETMSGNIGNMNEALKTALWVILVYYKFSMIRTCNSDETVEKIHALHTVISHHYSQKDLIVIFPSDLKSKDDYKKVLLQFRREFERKGGIECCHNLECFQELMGKGDLKTVGELTIHVLMLVKGISLEKAVAIQEIFPTLNKILMAYKTCSSEEEAKLLMFNVLGDAPGAKKITKSLSEKIYDAFGKL
binds: [6]
